At least one compound was matched to its structure with a doubt left.
Tested on: arterial blood pressure and dp/dt max. (left ventricle)
Test: Cardiotonic and blood pressure effects in anesthetized cats
Type: in vivo, cat
Conditions: 2 mg/kg intravenously, index of contractility
Experimental: 1. Cardiotonic and blood pressure effects
Cats of both sexes with a body weight of 2 to 4 kg were anesthetized by intraperitoneal injection of 30 mgm/kg of sodium pentobarbital. The arterial blood pressure was measured by a Statham pressure transducer (P23 Dc) from the aorta abdominalis via a PVA-Catheter, which was inserted through the right arteria femoralis. The ventricle pressure was measured by a cathetertip manometer (type MILLAR PC-350), which was introduced into the left ventricle via the right arteria carotis. The indices of contractility dp/dt max. were obtained by a differentiating amplifier. The arterial blood pressure and dp/dt max. were continuously recorded by direct-writer. The test compounds were injected intravenously at 2 mg/kg.

## CC1(C)C(=O)NC(=O)c2c1ccc1[nH]c(CCc3ccccc3)nc21 [C]
  Increase in dp/dt: + 87%
